PMC3402500, “Genes for Carbon Metabolism and the ToxA Virulence Factor in Pseudomonas aeruginosa Are Regulated through Molecular Interactions of PtxR and PtxS” (PLoS ONE, 2012)
Results are given in words; binding and its absence hold for the method and conditions named.

Target: T1, PtxR (Pseudomonas aeruginosa PAO1) (UniProt P72131)
T1 sequence: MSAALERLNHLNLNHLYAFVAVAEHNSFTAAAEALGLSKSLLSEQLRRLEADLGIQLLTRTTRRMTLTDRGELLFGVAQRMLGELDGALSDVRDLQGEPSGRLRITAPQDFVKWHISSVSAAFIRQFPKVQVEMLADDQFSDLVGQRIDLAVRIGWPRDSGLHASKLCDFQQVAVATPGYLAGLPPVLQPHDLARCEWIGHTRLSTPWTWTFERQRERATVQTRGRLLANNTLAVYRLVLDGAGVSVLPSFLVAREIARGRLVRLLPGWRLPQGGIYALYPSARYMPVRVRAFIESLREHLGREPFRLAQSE
Assay: ITC; as the titration of the free proteins, with 2-ketogluconate added to both protein solutions at a final concentration of 1 mM; both purified

B1: PtxS (natural protein)
chain: MNGSVLPSRGRVTINQVAEAAGVSKASVSRYIGGDRQLLADATARRIERAIDQLDYRPNQMARGLKRGRTRLIGMLVADILNPYSVAVMHGVETACREHGYSLVVCNTDRDDEQERHHLAALQSYNVEGLIVNTLGHHPGELRALHRELPMVLVDRQLAELDTDLVGLDNADAVEQALDHLQHRGFRDILLVTEPLDGTSSRIERVQAFNASIGRRPALKGQVLQTDDFFRDGLRAFLSASGPGPKALFTCNGVATLCATRQLRDLGCRLFDEVGLLALDELDWYPLVGSGITALAQPTDEIGRTAFERLLARLEGDREPARRVTFPAQLIVRGSTHPRG
notes: PtxS, LacI family transcriptional regulator of Pseudomonas aeruginosa PAO1; ptxS gene amplified from chromosomal DNA and cloned NheI/XhoI into pET24b(+); The NheI/XhoI cloning into pET24b(+) may add a few vector residues at both ends; source: E. coli BL21 (DE3), purified (His-Trap chelating column); not shown: His6, C-terminal, kept
binding: no binding (condition: with 1 mM 2-ketogluconate)
